Source: PMC11446702
Results are given in words; binding and its absence hold for the method and conditions named. Binding seen in cells or lysates may run through a third protein. Some binding calls cover weakened binding; strength is not graded here.

Sequences of proteins named here, by UniProt entry; tags and fusion partners are left off.
UniProt Q9Y2Y9: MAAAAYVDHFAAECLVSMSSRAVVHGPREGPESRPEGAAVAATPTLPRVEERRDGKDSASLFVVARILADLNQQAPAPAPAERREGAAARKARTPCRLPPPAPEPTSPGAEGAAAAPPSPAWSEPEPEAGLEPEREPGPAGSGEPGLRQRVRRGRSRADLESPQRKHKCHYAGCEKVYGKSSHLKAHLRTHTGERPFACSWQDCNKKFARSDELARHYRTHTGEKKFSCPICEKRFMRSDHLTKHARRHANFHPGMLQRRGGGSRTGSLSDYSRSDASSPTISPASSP
UniProt Q969H0: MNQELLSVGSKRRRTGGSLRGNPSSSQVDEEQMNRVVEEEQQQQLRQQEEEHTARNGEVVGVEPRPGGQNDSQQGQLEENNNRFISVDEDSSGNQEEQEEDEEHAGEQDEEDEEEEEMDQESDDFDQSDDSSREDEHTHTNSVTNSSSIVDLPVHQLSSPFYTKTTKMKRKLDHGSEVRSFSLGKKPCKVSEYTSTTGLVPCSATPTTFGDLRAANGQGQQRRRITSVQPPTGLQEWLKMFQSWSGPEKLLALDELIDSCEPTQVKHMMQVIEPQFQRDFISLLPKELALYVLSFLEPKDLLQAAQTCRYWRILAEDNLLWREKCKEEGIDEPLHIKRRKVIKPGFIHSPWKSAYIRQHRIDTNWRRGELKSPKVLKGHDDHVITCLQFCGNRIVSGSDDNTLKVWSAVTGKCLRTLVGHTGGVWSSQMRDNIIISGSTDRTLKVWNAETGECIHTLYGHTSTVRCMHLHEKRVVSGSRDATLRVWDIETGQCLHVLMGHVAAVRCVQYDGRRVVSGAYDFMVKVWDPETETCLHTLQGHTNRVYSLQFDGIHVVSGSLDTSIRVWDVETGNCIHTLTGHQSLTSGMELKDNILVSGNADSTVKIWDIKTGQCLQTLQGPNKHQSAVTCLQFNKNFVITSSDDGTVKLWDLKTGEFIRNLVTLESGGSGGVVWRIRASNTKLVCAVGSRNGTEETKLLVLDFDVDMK

Target: Krüppel-like factor 13 (KLF13) (human (endogenous in HEK293T)) (UniProt Q9Y2Y9)
Test: co-IP; HEK293T cells treated with DEX 50 μM for 24 h; co-immunoprecipitation using KLF13 or FBXW7, immunoblot of indicated proteins

Question: “F-Box and WD repeat domain containing 7 (FBXW7) (from UniProt Q969H0 1-707)” was tested. Which binding did it give?
Answer: Its binding is “binds”.
